From patent US20240110220A1, “DETECTING BETA-LACTAMASE ENZYME ACTIVITY” (COMMISSARIAT A L'ENERGIE ATOMIQUE ET AUX ENERGIES …, priority 2021, published 2024)
This continues a long series; more values of the same kind are listed elsewhere.

Tested on: bacterial colonies
Experiment: Validation of the rapid test strip on bacterial colonies sensitive or resistant to third-generation cephalosporins (Table 12)
Type: biochemical
Set-up: key: A signal on the TL is considered as “P”; An absence of signal on the TL is defined as “N”
Protocol: In order to validate the test strip on bacterial colonies for its clinical use, […].
In order to carry out these tests, all of the solutions below have been prepared in the buffer strip having, for composition: 0.1 M pH 8 Tris buffer/HCL+0.15 M NaCl+0.5% Tween 20+1% chaps+0.01% sodium azide. […] The tracer is in dried format on the CP. […] A CL was produced. It consists of anti-tracer antibodies. The migration is carried out in a plastic cassette.
A bacterial colony was sampled from an URI-4 agar with a 1 μl ose, then deposited in the previously prepared Eppendorf tube. The tube was vortexed for five seconds, then incubated for 30 minutes at ambient temperature. Once the incubation was finished, 100 μl was sampled and deposited on the test strip. The reading is carried out after 10 minutes migration. A signal on the TL is considered as “P”. An absence of signal on the TL is defined as “N”.

## CO/N=C(\C(=O)N[C@@H]1C(=O)N2C(C(=O)O)=C(COC(C)=O)CS[C@H]12)c1csc(N)n1 [non-hydrolysed cefotaxime, cefotaxime]
E. coli, KPC-6, isolate number 1, strains capable of hydrolysing cefotaxime
  results of the test: P
E. coli, KPC-7, isolate number 1, strains capable of hydrolysing cefotaxime
  results of the test: P
E. coli, KPC-14, isolate number 1, strains capable of hydrolysing cefotaxime
  results of the test: P
E. coli, KPC-28, isolate number 1, strains capable of hydrolysing cefotaxime
  results of the test: P
E. coli, KPC-31, isolate number 1, strains capable of hydrolysing cefotaxime
  results of the test: P
E. coli, KPC-33, isolate number 1, strains capable of hydrolysing cefotaxime
  results of the test: P
E. coli, MCR-1 + OXA-48 + KPC-28, isolate number 1, strains capable of hydrolysing cefotaxime
  results of the test: P
E. coli, MCR-1, isolate number 1, strains not capable of hydrolysing cefotaxime
  results of the test: N
E. coli, MCR-2, isolate number 1, strains not capable of hydrolysing cefotaxime
  results of the test: N
E. coli, MCR-5, isolate number 1, strains not capable of hydrolysing cefotaxime
  results of the test: N
E. coli, N/A, isolate number 1, strains not capable of hydrolysing cefotaxime
  results of the test: N
E. coli, NDM-1 + MCR-1, isolate number 1, strains capable of hydrolysing cefotaxime
  results of the test: P
E. coli, NDM-1 + VIM-2, isolate number 1, strains capable of hydrolysing cefotaxime
  results of the test: P
E. coli, NDM-7, isolate number 1, strains capable of hydrolysing cefotaxime
  results of the test: P
E. coli, NDM-19, isolate number 1, strains capable of hydrolysing cefotaxime
  results of the test: P
E. coli, OXA-48 + MCR-1, isolate number 2, strains capable of hydrolysing cefotaxime
  results of the test: P
E. coli, OXA-181, isolate number 2, strains capable of hydrolysing cefotaxime
  results of the test: P
E. coli, OXA-244, isolate number 2, strains capable of hydrolysing cefotaxime
  results of the test: P
E. coli, OXA-484, isolate number 1, strains capable of hydrolysing cefotaxime
  results of the test: P
E. coli, Overexpressed AmpC, isolate number 1, strains capable of hydrolysing cefotaxime
  results of the test: P
E. coli, SHV + DHA, isolate number 1, strains capable of hydrolysing cefotaxime
  results of the test: P
E. coli, SHV-2a, isolate number 1, strains capable of hydrolysing cefotaxime
  results of the test: P
E. coli, SHV-12 + IMP-8, isolate number 1, strains capable of hydrolysing cefotaxime
  results of the test: P
E. coli, TEM-1 + KPC-2 + OXA-9, isolate number 1, strains capable of hydrolysing cefotaxime
  results of the test: P
E. coli, TEM-1 + OXA-244, isolate number 1, strains capable of hydrolysing cefotaxime
  results of the test: P
E. coli, TEM-52, isolate number 1, strains capable of hydrolysing cefotaxime
  results of the test: P
H. alvei, Overexpressed AmpC, isolate number 2, strains capable of hydrolysing cefotaxime
  results of the test: P
M. morganii, CTX-M-15, isolate number 1, strains capable of hydrolysing cefotaxime
  results of the test: P
M. morganii, Overexpressed AmpC, isolate number 1, strains capable of hydrolysing cefotaxime
  results of the test: P
P. aeruginosa, AIM-1, isolate number 1, strains not capable of hydrolysing cefotaxime
  results of the test: N
P. aeruginosa, BEL, isolate number 1, strains capable of hydrolysing cefotaxime
  results of the test: P
P. aeruginosa, CARBA-4, isolate number 1, strains not capable of hydrolysing cefotaxime
  results of the test: N
P. aeruginosa, CTX-M-2, isolate number 1, strains capable of hydrolysing cefotaxime
  results of the test: P
P. aeruginosa, GES-2, isolate number 1, strains capable of hydrolysing cefotaxime
  results of the test: P
P. aeruginosa, GES-5, isolate number 1, strains capable of hydrolysing cefotaxime
  results of the test: P
P. aeruginosa, GES-9, isolate number 1, strains capable of hydrolysing cefotaxime
  results of the test: P
P. aeruginosa, GIM-1 + OXA-2 + OXA 395, isolate number 1, strains capable of hydrolysing cefotaxime
  results of the test: P
P. aeruginosa, IMP-1, isolate number 1, strains capable of hydrolysing cefotaxime
  results of the test: P
P. aeruginosa, IMP-2, isolate number 2, strains capable of hydrolysing cefotaxime
  results of the test: P
P. aeruginosa, IMP-7, isolate number 1, strains capable of hydrolysing cefotaxime
  results of the test: P
P. aeruginosa, IMP-13, isolate number 2, strains capable of hydrolysing cefotaxime
  results of the test: P
P. aeruginosa, IMP-15, isolate number 1, strains capable of hydrolysing cefotaxime
  results of the test: P
P. aeruginosa, IMP-19, isolate number 1, strains capable of hydrolysing cefotaxime
  results of the test: P
P. aeruginosa, IMP-26, isolate number 1, strains capable of hydrolysing cefotaxime
  results of the test: P
P. aeruginosa, IMP-29, isolate number 1, strains capable of hydrolysing cefotaxime
  results of the test: P
P. aeruginosa, IMP-31, isolate number 1, strains capable of hydrolysing cefotaxime
  results of the test: P
P. aeruginosa, IMP-39, isolate number 1, strains capable of hydrolysing cefotaxime
  results of the test: P
P. aeruginosa, IMP-56, isolate number 1, strains capable of hydrolysing cefotaxime
  results of the test: P
P. aeruginosa, IMP-63, isolate number 1, strains capable of hydrolysing cefotaxime
  results of the test: P
P. aeruginosa, IMP-71, isolate number 1, strains capable of hydrolysing cefotaxime
  results of the test: P
P. aeruginosa, KPC-2, isolate number 4, strains capable of hydrolysing cefotaxime
  results of the test: P
P. aeruginosa, Mex A/B-OprM, isolate number 1, strains not capable of hydrolysing cefotaxime
  results of the test: N
P. aeruginosa, Mex C/D-OprJ, isolate number 1, strains not capable of hydrolysing cefotaxime
  results of the test: N
P. aeruginosa, N/A, isolate number 2, strains not capable of hydrolysing cefotaxime
  results of the test: N
P. aeruginosa, NDM-1, isolate number 2, strains capable of hydrolysing cefotaxime
  results of the test: P
P. aeruginosa, OXA-32, isolate number 1, strains not capable of hydrolysing cefotaxime
  results of the test: N
P. aeruginosa, OXA-198, isolate number 1, strains not capable of hydrolysing cefotaxime
  results of the test: N
P. aeruginosa, OprD deficient, isolate number 1, strains not capable of hydrolysing cefotaxime
  results of the test: N
P. aeruginosa, Overexpressed AmpC + OprD deficient + MexA/B-OprM + MexC/D-OprJ, isolate number 1, strains capable of hydrolysing cefotaxime
  results of the test: P
P. aeruginosa, Overexpressed AmpC + OprD deficient + MexA/B-OprM + MexX/Y-OprM, isolate number 1, strains capable of hydrolysing cefotaxime
  results of the test: P
P. aeruginosa, Overexpressed AmpC + OprD deficient + MexA/B-OprM, isolate number 1, strains capable of hydrolysing cefotaxime
  results of the test: P
P. aeruginosa, PER-1, isolate number 1, strains capable of hydrolysing cefotaxime
  results of the test: P
P. aeruginosa, PER-2, isolate number 1, strains capable of hydrolysing cefotaxime
  results of the test: P
P. aeruginosa, PME-1, isolate number 1, strains not capable of hydrolysing cefotaxime
  results of the test: N
P. aeruginosa, SHV-2a, isolate number 1, strains capable of hydrolysing cefotaxime
  results of the test: P
P. aeruginosa, SHV-5, isolate number 1, strains capable of hydrolysing cefotaxime
  results of the test: P
P. aeruginosa, SPM-1, isolate number 1, strains capable of hydrolysing cefotaxime
  results of the test: P
P. aeruginosa, TEM-4, isolate number 1, strains capable of hydrolysing cefotaxime
  results of the test: P
P. aeruginosa, VEB-1, isolate number 1, strains capable of hydrolysing cefotaxime
  results of the test: P
P. aeruginosa, VIM-1, isolate number 1, strains capable of hydrolysing cefotaxime
  results of the test: P
P. aeruginosa, VIM-2, isolate number 2, strains capable of hydrolysing cefotaxime
  results of the test: P
P. aeruginosa, VIM-4, isolate number 3, strains capable of hydrolysing cefotaxime
  results of the test: P
P. fluorescens, VIM-2, isolate number 1, strains capable of hydrolysing cefotaxime
  results of the test: P
P. putida, IMP-1, isolate number 1, strains capable of hydrolysing cefotaxime
  results of the test: P
P. putida, IMP-46, isolate number 1, strains capable of hydrolysing cefotaxime
  results of the test: P
P. putida, N/A, isolate number 1, strains not capable of hydrolysing cefotaxime
  results of the test: N
P. putida, VIM-2, isolate number 1, strains capable of hydrolysing cefotaxime
  results of the test: P
P. stutzeri, DIM-1, isolate number 1, strains capable of hydrolysing cefotaxime
  results of the test: P
P. stutzeri, IMP-1, isolate number 1, strains capable of hydrolysing cefotaxime
  results of the test: P
P. stutzeri, N/A, isolate number 1, strains not capable of hydrolysing cefotaxime
  results of the test: N
P. stutzeri, VIM-2, isolate number 1, strains capable of hydrolysing cefotaxime
  results of the test: P
S. enterica, CTX-M-15 + TEM-1 + OXA-1 + OXA-9 + OXA-10 + NDM-1, isolate number 1, strains capable of hydrolysing cefotaxime
  results of the test: P
S. marcescens, ESBL + SME-2, isolate number 1, strains capable of hydrolysing cefotaxime
  results of the test: P
S. marcescens, OXA-405, isolate number 1, strains capable of hydrolysing cefotaxime
  results of the test: P
S. marcescens, Overexpressed AmpC + Pénicillinase, isolate number 1, strains capable of hydrolysing cefotaxime
  results of the test: P
S. marcescens, SHV-12 + IMP-10, isolate number 1, strains capable of hydrolysing cefotaxime
  results of the test: P
S. marcescens, SME-1, isolate number 1, strains not capable of hydrolysing cefotaxime
  results of the test: N
S. marcescens, SME-4, isolate number 1, strains not capable of hydrolysing cefotaxime
  results of the test: N
S. marcescens, TEM-1 + KPC-2, isolate number 1, strains capable of hydrolysing cefotaxime
  results of the test: P
Salmonella spp., MCR-1, isolate number 1, strains not capable of hydrolysing cefotaxime
  results of the test: N
Salmonella spp., MCR-4, isolate number 1, strains not capable of hydrolysing cefotaxime
  results of the test: N
Salmonella spp., MCR-5, isolate number 1, strains not capable of hydrolysing cefotaxime
  results of the test: N
